Test results published in US8895574B2, “Benzyloxypyrimidine derivative, agricultural/ horticultural insecticide comprising derivative and method for using same” (Nihon Nohyaku Co., Ltd., priority 2010, dated 2014).
Some results were stated once for a whole list of compounds, not compound by compound. Some ranges recur; such a range may be that of the whole group of compounds.

test system: green peach aphid (Myzus persicae); assay: Control efficacy against green peach aphid, foliar spray on potted Chinese cabbage; format: in vivo; conditions: 500 ppm liquid chemical sprayed on stalks and leaves of Chinese cabbage; six days after spraying

Row | Compound | insecticidal effect against green peach aphid (control efficacy, judged by criterion)
1 | CC(C)(C)COc1cncnc1OCc1ccc(C(F)(F)F)cc1 [1-252] | D (control efficacy 79%-50%)
2 | FC(F)(F)c1ccc(COc2ncncc2OC2CCCCC2)cc1 [1-253] | D (control efficacy 79%-50%)
3 | CC#CCOc1cncnc1OCc1ccc(C(F)(F)F)cc1 [1-254] | D (control efficacy 79%-50%)
4 | CCCOc1cncnc1OCc1ccc(C(F)(F)F)cc1F [1-256] | D (control efficacy 79%-50%)
5 | CC(C)COc1cncnc1OCc1ccc(C(F)(F)F)cc1F [1-257] | D (control efficacy 79%-50%)
6 | Fc1cc(C(F)(F)F)ccc1COc1ncncc1OC1CCCC1 [1-259] | D (control efficacy 79%-50%)
7 | Fc1cc(C(F)(F)F)ccc1COc1ncncc1OCC1CC1 [1-260] | D (control efficacy 79%-50%)
8 | CC(C)COc1cncnc1OCc1ccc(C(F)(F)F)cc1Cl [1-264] | D (control efficacy 79%-50%)
9 | FC(F)(F)c1ccc(COc2ncncc2OCC2CC2)c(Cl)c1 [1-266] | D (control efficacy 79%-50%)
10 | COc1cc(C(F)(F)F)ccc1COc1ncncc1OC [1-267] | D (control efficacy 79%-50%)
11 | COc1cncnc1OCc1ccc(C(F)(F)F)cc1[N+](=O)[O-] [1-270] | D (control efficacy 79%-50%)
12 | CCC(CC)Oc1cncnc1OCc1ccc(C(C)(C)C)cc1 [3-4] | D (control efficacy 79%-50%)
13 | CCCC(C)Oc1cncnc1OCc1ccc(C(C)(C)C)cc1 (stereo not shown) [3-5] | D (control efficacy 79%-50%)
14 | CC(C)(C)c1ccc(COc2ncncc2OCCC(F)(F)F)cc1 [3-12] | D (control efficacy 79%-50%)
15 | COCOc1cncnc1OC(c1ccc(C(C)(C)C)cc1)C(F)(F)F (stereo not shown) [3-24] | D (control efficacy 79%-50%)
16 | CC(C)Oc1cncnc1OC(c1ccc(C(C)(C)C)cc1)C(F)(F)F (stereo not shown) [3-25] | D (control efficacy 79%-50%)
17 | CC(C)(C)c1ccc(C(Oc2ncncc2OC2CCCC2)C(F)(F)F)cc1 (stereo not shown) [3-26] | D (control efficacy 79%-50%)
18 | COc1cc(C(C)(C)C)ccc1COc1ncncc1OC [3-28] | D (control efficacy 79%-50%)
19 | CCCCOc1cncnc1OCc1ccc(C(C)C)cc1 [3-29] | D (control efficacy 79%-50%)
20 | CC(C)COc1cncnc1OCc1ccc(C(C)C)cc1 [3-30] | D (control efficacy 79%-50%)
21 | CC(C)c1ccc(COc2ncncc2OC2CCCC2)cc1 [3-32] | D (control efficacy 79%-50%)
22 | CCC(C)Oc1cncnc1OCc1ccc([Si](C)(C)C)cc1 (stereo not shown) [3-38] | D (control efficacy 79%-50%)
23 | CC(C)(C)COc1cncnc1OCc1ccc([Si](C)(C)C)cc1 [3-39] | D (control efficacy 79%-50%)
24 | C[Si](C)(C)c1ccc(COc2ncncc2OCC(F)(F)F)cc1 [3-40] | D (control efficacy 79%-50%)

Row | Compound | insecticidal effect against green peach aphid (control efficacy, judged by criterion)
25 | C[Si](C)(C)c1ccc(COc2ncncc2OCCF)cc1 [3-41] | D (control efficacy 79%-50%)
26 | CC(CCl)Oc1cncnc1OCc1ccc([Si](C)(C)C)cc1 (stereo not shown) [3-43] | D (control efficacy 79%-50%)
27 | CCCC(C)Oc1cncnc1OCc1ccc([Si](C)(C)C)cc1 (stereo not shown) [3-44] | D (control efficacy 79%-50%)
28 | C[Si](C)(C)c1ccc(COc2ncncc2OC/C(Cl)=C\Cl)cc1 [3-46] | D (control efficacy 79%-50%)
29 | C[Si](C)(C)c1ccc(COc2ncncc2OCc2ccco2)cc1 [3-47] | D (control efficacy 79%-50%)
30 | C[Si](C)(C)c1ccc(COc2ncncc2OCc2cccnc2)cc1 [3-49] | D (control efficacy 79%-50%)
31 | CN(C)C(=O)Oc1cncnc1OCc1ccc([Si](C)(C)C)cc1 [3-52] | D (control efficacy 79%-50%)
32 | N#CCOc1cncnc1OCc1ccc(C(F)(F)F)cc1 [3-65] | D (control efficacy 79%-50%)
33 | C[Si](C)(C)COc1cncnc1OCc1ccc(C(F)(F)F)cc1 [3-66] | D (control efficacy 79%-50%)
34 | FC(F)(F)c1ccc(COc2ncncc2OCCc2ccccc2)cc1 [3-68] | D (control efficacy 79%-50%)
35 | FC(F)(F)c1ccc(COc2ncncc2OC/C=C/Cl)cc1 [3-71] | D (control efficacy 79%-50%)
36 | C#CC(C)Oc1cncnc1OCc1ccc(C(F)(F)F)cc1 (stereo not shown) [3-76] | D (control efficacy 79%-50%)
37 | COc1ccccc1COc1cncnc1OCc1ccc(C(F)(F)F)cc1 [3-85] | D (control efficacy 79%-50%)
38 | COc1ccc(COc2cncnc2OCc2ccc(C(F)(F)F)cc2)cc1 [3-86] | D (control efficacy 79%-50%)
39 | Fc1cccc(COc2cncnc2OCc2ccc(C(F)(F)F)cc2)c1 [3-88] | D (control efficacy 79%-50%)
40 | Fc1ccc(Oc2cncnc2OCc2ccc(C(F)(F)F)cc2)cc1 [3-93] | D (control efficacy 79%-50%)
41 | FC(F)(F)c1ccc(COc2ncncc2Oc2ccccc2Cl)cc1 [3-94] | D (control efficacy 79%-50%)
42 | CC(C)COc1cncnc1OCc1cc(C(F)(F)F)ccc1F [3-112] | D (control efficacy 79%-50%)
43 | CC(C)COc1cncnc1OCc1ccc(OC(F)(F)F)cc1 [3-124] | D (control efficacy 79%-50%)
44 | FC(F)(F)Oc1ccc(COc2ncncc2OC/C(Cl)=C/Cl)cc1 [3-130] | D (control efficacy 79%-50%)
45 | CC(C)COc1cncnc1OCc1ccc(F)cc1 [3-146] | D (control efficacy 79%-50%)
46 | CCC(C)Oc1cncnc1OCc1ccc(F)cc1 (stereo not shown) [3-147] | D (control efficacy 79%-50%)
47 | COCOc1cncnc1OCc1ccc(F)cc1 [3-148] | D (control efficacy 79%-50%)
48 | CCC(C)Oc1cncnc1OCc1ccccc1F (stereo not shown) [3-152] | D (control efficacy 79%-50%)

Row | Compound | insecticidal effect against green peach aphid (control efficacy, judged by criterion)
49 | COc1cncnc1OCc1ccc(F)cc1F [3-153] | D (control efficacy 79%-50%)
50 | CCCOc1cncnc1OCc1ccc(F)cc1F [3-154] | D (control efficacy 79%-50%)
51 | COCOc1cncnc1OCc1ccc(F)cc1F [3-158] | D (control efficacy 79%-50%)
52 | Fc1ccc(COc2ncncc2Oc2ccccc2)c(F)c1 [3-159] | D (control efficacy 79%-50%)
53 | CCC(C)Oc1cncnc1OCc1c(F)cccc1F (stereo not shown) [3-164] | D (control efficacy 79%-50%)
54 | CCC(C)Oc1cncnc1OCc1ccccc1 (stereo not shown) [3-168] | D (control efficacy 79%-50%)
55 | COc1cncnc1OC(C)c1ccccc1 (stereo not shown) [3-169] | D (control efficacy 79%-50%)
56 | COCOc1cncnc1OC(c1ccccc1)C(F)(F)F (stereo not shown) [3-171] | D (control efficacy 79%-50%)
57 | FC(F)(F)C(Oc1ncncc1OC1CCCC1)c1ccccc1 (stereo not shown) [3-172] | D (control efficacy 79%-50%)
58 | FC(F)(F)C(Oc1ncncc1OCC(Cl)=CCl)c1ccccc1 (stereo not shown) [3-173] | D (control efficacy 79%-50%)
59 | C#CC(C)(C)Oc1cncnc1OC(c1ccccc1)C(F)(F)F (stereo not shown) [3-176] | D (control efficacy 79%-50%)
60 | Clc1ccc(COc2ncncc2OCC2CC2)cc1 [3-183] | D (control efficacy 79%-50%)
61 | COCOc1cncnc1OCc1ccc(Cl)cc1 [3-184] | D (control efficacy 79%-50%)
62 | COCOc1cncnc1OC(c1ccc(Cl)cc1)C(F)(F)F (stereo not shown) [3-188] | D (control efficacy 79%-50%)
63 | CCCOc1cncnc1OCc1ccc(Cl)cc1Cl [3-190] | D (control efficacy 79%-50%)
64 | CCC(C)Oc1cncnc1OCc1ccc(Br)cc1 (stereo not shown) [3-191] | D (control efficacy 79%-50%)
65 | CCC(C)Oc1cncnc1OCc1ccc(I)cc1 (stereo not shown) [3-192] | D (control efficacy 79%-50%)
66 | CCCOc1cncnc1OCc1ccc(C)cc1 [3-199] | D (control efficacy 79%-50%)
67 | CCC(C)Oc1cncnc1OCc1ccc(SC)cc1 (stereo not shown) [3-206] | D (control efficacy 79%-50%)
68 | CCC(C)Oc1cncnc1OCc1ccc(C(C)CC)cc1 (stereo not shown) [3-207] | D (control efficacy 79%-50%)
69 | CCC(C)Oc1cncnc1OCc1ccc(S(C)(=O)=O)cc1 (stereo not shown) [3-208] | D (control efficacy 79%-50%)
70 | CCC(C)(C)c1ccc(COc2ncncc2OCC(C)C)cc1 [3-209] | D (control efficacy 79%-50%)
